Experimental data published in PubChem BioAssay AID1671190 (National Center for Advancing Translational Sciences (NCATS), 2021).
The whole screen tested about 580,000 compounds, of which about 6,100 (1.1%) were called active. Inconclusive results, whose numbers are uncertain, are shown with a selection of clear calls. The call rests on the fitted dose curve; in most records, active means well fitted inhibition curve with a large enough effect; inconclusive means small, poorly fitted or top-dose-only effect, or another doubt; inactive means no such curve, though single readings can be large or run the other way. Potencies beside an inconclusive call are fits to weak or partial responses and may not hold up.
Potency means the concentration at half of the fitted maximal effect.

Protein sequences, listed by entry. Tags and fused reporters are not part of them. Lines headed by an entry give the natural chain unless they say otherwise; changes in a name come on top.
UniProt P18054: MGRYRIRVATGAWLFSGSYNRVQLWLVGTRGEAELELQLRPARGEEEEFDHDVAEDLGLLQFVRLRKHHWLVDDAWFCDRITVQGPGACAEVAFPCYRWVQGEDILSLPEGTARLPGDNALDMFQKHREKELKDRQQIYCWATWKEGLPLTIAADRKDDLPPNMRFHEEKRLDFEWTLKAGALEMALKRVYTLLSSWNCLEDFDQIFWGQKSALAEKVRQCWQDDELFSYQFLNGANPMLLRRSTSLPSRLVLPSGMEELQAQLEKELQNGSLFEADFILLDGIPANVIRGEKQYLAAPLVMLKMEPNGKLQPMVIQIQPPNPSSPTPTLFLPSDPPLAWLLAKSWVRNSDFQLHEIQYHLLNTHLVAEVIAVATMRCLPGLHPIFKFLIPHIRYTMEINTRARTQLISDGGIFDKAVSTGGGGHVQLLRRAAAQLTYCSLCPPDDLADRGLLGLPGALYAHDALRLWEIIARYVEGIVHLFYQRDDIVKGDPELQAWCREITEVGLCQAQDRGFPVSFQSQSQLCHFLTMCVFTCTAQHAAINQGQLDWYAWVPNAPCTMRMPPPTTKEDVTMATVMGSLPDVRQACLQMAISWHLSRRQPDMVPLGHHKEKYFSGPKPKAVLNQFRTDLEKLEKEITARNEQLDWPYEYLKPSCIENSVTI

Each molecule was assayed against Polyunsaturated fatty acid lipoxygenase ALOX12 (Homo sapiens) (UniProt P18054) (assay: Primary qHTS assay for inhibitors of human arachidonate 12S-lipoxygenase (ALOX12): Round 2). Conditions: purified 12hLO, xylenol orange hydroperoxide absorbance; series mostly up to 108 µM.
Summary of the method: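 Purified human 12hLO at 150 nM in 25 mM Hepes, 0.01% Triton X-100, pH 7.0, preincubated 15 min at room temperature with compound. Reaction started with 40 uM arachidonic acid, 30 min at room temperature. Hydroperoxide measured by Fe-xylenol orange, 573/405 nm absorbance ratio.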
In the case of `CCN(CC)C(=O)[C@@H]1CCC[C@@H](NC(=O)c2cc(C)on2)CN(C)C(=O)C1`, the Potency is reported as “inactive”.
`COc1ccc(Cn2c(C(=O)O)c(CNCc3ccc(OC)cc3OC)c3ccc(C)cc32)cc1` was tested, and the Potency was inconclusive: 56.2 µM [inhibitor, partial curve, poor fit].
In the case of `O=C(Cc1ccc(-c2ccccc2)cc1)NCCc1c[nH]c2ccccc12`, the Potency is reported as “inactive”.
For `Fc1ccc(CNCCCSc2nnnn2-c2ccccc2)cc1`, the Potency was inconclusive: 89.1 µM [inhibitor, single point].
`CCCC1(c2ccccc2)NC(=O)N(CC(=O)N(C)Cc2c(F)cccc2Cl)C1=O` (stereo not drawn) was tested, and the Potency was “inactive”.
With `O=C1/C(=C\c2cccs2)SC(=S)N1C1CCS(=O)(=O)C1` (stereo not drawn) the Potency was inconclusive: 10 µM [inhibitor, single point].
For `COc1ncnc(NS(=O)(=O)c2ccc(N)cc2)c1OC`, the Potency was inconclusive: 5.44 µM [inhibitor, partial curve, poor fit].
In the case of `COc1cccc2cc(-c3nc(C4CCC(C(=O)O)CC4)n4ncnc(N)c34)[nH]c12` (stereo not drawn), the Potency is reported as inconclusive: 15.3 µM [inhibitor, partial curve, poor fit].
For `CC(=O)OCC(=O)[C@@]1(O)[C@H](C)C[C@H]2[C@@H]3CCC4=CC(=O)C=C[C@]4(C)[C@@]3(F)[C@@H](O)C[C@@]21C`, the Potency was “inactive”.
With `Cc1cc2c(=O)n(Cc3ccco3)c(SCC(=O)NCc3ccco3)nc2s1` the Potency was inconclusive: 35.5 µM [inhibitor, partial curve, poor fit].
`CC(=O)N1CCC2(CC1)Oc1ccc(Br)cc1C1CC(c3cccnc3)=NN12` (stereo not drawn) was tested, and the Potency was “inactive”.
`O=C(COc1ccc2c(-c3ccccc3)cc(=O)oc2c1)NC1CCCC1` was tested, and the Potency was “inactive”.
For `COc1ccc(OC)c(S(=O)(=O)NCCCN2CCOCC2)c1`, the Potency was inconclusive: 79.4 µM [inhibitor, single point].
For `C[C@H](CO)N1C[C@H](C)[C@@H](CN(C)Cc2ccc(O)cc2)OCc2cnnn2CCCC1=O`, the Potency was inconclusive: 31.6 µM [inhibitor, single point].
With `COC(=O)c1cccc(Cn2nc(C)c([N+](=O)[O-])c2C)c1` the Potency was “inactive”.
In the case of `O=C(/C=C/c1cc([N+](=O)[O-])ccc1OC(F)F)Nc1cccc(OC(F)F)c1`, the Potency is reported as inconclusive: 0.708 µM [inhibitor, full curve, poor fit].
`CN(C)C(=S)Nc1ccc2c(c1)OCO2` was tested, and the Potency was inconclusive: 50.1 µM [inhibitor, partial curve, poor fit].
In the case of `COCC(=O)N1CCN(CC(=O)Nc2ccc(C)cc2)[C@H]2CS(=O)(=O)C[C@H]21`, the Potency is reported as “inactive”.
With `O=C(CCl)Nc1cc(-c2ccccc2)nn1-c1ccccc1` the Potency was inconclusive: 39.8 µM [inhibitor, partial curve, poor fit].
In the case of `Cc1ccccc1-c1csc(=S)[nH]1`, the Potency is reported as inconclusive: 7.94 µM [inhibitor, partial curve, poor fit].
With `Cc1cccc(C(=O)Nc2c(C)ccc3nsnc23)c1` the Potency was “inactive”.
For `O=C(COC(=O)Cc1ccc(S(=O)(=O)N2CCOCC2)s1)NCCc1ccccc1`, the Potency was inconclusive: 7.08 µM [inhibitor, full curve, poor fit].
With `CCCN1C(=O)Cc2cc(C(=O)NCc3ccc(Cl)cc3)ccc21` the Potency was “inactive”.
For `Cc1ccc(Cl)cc1N1CCN(CC(O)COCc2ccco2)CC1` (stereo not drawn), the Potency was active: 10 µM.
`COc1cc(Cl)c(C)cc1NC(=O)CC1Oc2ccccc2NC1=O` (stereo not drawn) was tested, and the Potency was inconclusive: 141 µM [inhibitor, partial curve, poor fit].
For `O=c1c(-c2ccc(Cl)cc2)nc2cnc(N3CCNCC3)nc2n1Cc1ccc(F)cc1`, the Potency was inconclusive: 50.1 µM [inhibitor, partial curve, poor fit].
`Cc1cccc(N2CCN(C(=O)NCc3ccc(F)cc3)CC2)c1C` was tested, and the Potency was “inactive”.
`O=C1NC(=O)c2cc(NC(=O)c3cccc4ccccc34)ccc21` was tested, and the Potency was inconclusive: 31.6 µM [inhibitor, partial curve, poor fit].
In the case of `CC(C)c1ccccc1OCC(=O)NN1C(=O)c2ccccc2C1=O`, the Potency is reported as “inactive”.
`O=C(/C=C/c1cccc(Cl)c1)c1ccc(OC(F)F)cc1OC(F)F` was tested, and the Potency was “inactive”.
In the case of `COC(=O)C[C@@H]1C[C@H]2c3cc(NS(C)(=O)=O)ccc3O[C@H]2[C@H](CO)O1`, the Potency is reported as inconclusive: 50.1 µM [inhibitor, partial curve, poor fit].
`O=C(Nc1ccc(C(=O)O)cc1)/C(=C\C=C\c1ccccc1)NC(=O)c1ccc(Br)cc1` was tested, and the Potency was inconclusive: 50.1 µM [inhibitor, partial curve, poor fit].
With `CC(=O)NC[C@@H]1C=C(C)[C@H](CC(=O)N2CCN(C(C)=O)CC2)C[C@H]1C(C)C` the Potency was inconclusive: 25.1 µM [inhibitor, full curve, poor fit].
For `O=C(COC(=O)c1ccc2ccccc2n1)Nc1cc(Cl)cc(Cl)c1`, the Potency was inconclusive: 31.6 µM [inhibitor, partial curve, poor fit].
With `Cc1cc(C(=O)NCC2COc3ccccc3O2)c2ccccc2n1` (stereo not drawn) the Potency was inconclusive: 112 µM [inhibitor, single point].
`O=C(NC(=O)c1ccc(F)cc1F)Nc1ccc(Cl)cc1` was tested, and the Potency was “inactive”.
With `CC(C)N(CC#CCC(O)(c1ccccc1)c1ccccc1)CCO` the Potency was inconclusive: 44.7 µM [inhibitor, partial curve, poor fit].
`Nc1ccccc1/C=N\N=C/c1ccccc1N` was tested, and the Potency was inconclusive: 17.8 µM [inhibitor, full curve, poor fit].
In the case of `CCN1CCCC1CNC(=O)c1ccc(Sc2ccccc2Cl)c([N+](=O)[O-])c1` (stereo not drawn), the Potency is reported as inconclusive: 50.1 µM [inhibitor, partial curve, poor fit].
In the case of `CC1(NC(=O)c2cn(-c3cccc(Br)c3)nn2)CCS(=O)(=O)C1` (stereo not drawn), the Potency is reported as “inactive”.
`Cn1c(=S)[nH]c2cccnc21` was tested, and the Potency was inconclusive: 112 µM [inhibitor, single point].
`CCCCCOc1ccc(C(N)C(=O)OCC)cc1` (stereo not drawn) was tested, and the Potency was active: 20 µM.
With `COC(=O)[C@@]12C[C@@H](CC(=O)NCC3CCCCC3)C(=O)N(CCc3ccc(OC)c(OC)c3)C1=CCC(C)(C)C2` the Potency was “inactive”.
